# According to publication PMC10690843:
# pKd: −log10 of the molar value. Construct, isoform or probe ends are uncertain for at least one entry.
# Target: alpha-synuclein oligomers, 6 h aggregated (UniProt P37840)
# Test: blotting assay
# Conditions: alpha-synuclein oligomers of the cited work, preparation may differ from P1, Incubation 2 h in 100 mM KCl, 50 mM NaCl, 5 mM MgCl2, 10 mM Tris-EDTA pH 8.0 (oligomers diluted in PBS pH 7.3), measured in 2 M LiCl, recombinant protein, folded or branched DNA
sequence,measurement,value
GGTGCGGCGGGACTAGTGGGTGTG [T-SO530 aptamer alone],pKd,7.20
